Our source for the binding result and activity on this sequence values is US20130130320, “ENZYMES” (published 2013).

In data set [1] the target is T1, TGK (TgoT Y409G E664K) (Thermococcus gorgonarius) (UniProt P56689).
T1 sequence: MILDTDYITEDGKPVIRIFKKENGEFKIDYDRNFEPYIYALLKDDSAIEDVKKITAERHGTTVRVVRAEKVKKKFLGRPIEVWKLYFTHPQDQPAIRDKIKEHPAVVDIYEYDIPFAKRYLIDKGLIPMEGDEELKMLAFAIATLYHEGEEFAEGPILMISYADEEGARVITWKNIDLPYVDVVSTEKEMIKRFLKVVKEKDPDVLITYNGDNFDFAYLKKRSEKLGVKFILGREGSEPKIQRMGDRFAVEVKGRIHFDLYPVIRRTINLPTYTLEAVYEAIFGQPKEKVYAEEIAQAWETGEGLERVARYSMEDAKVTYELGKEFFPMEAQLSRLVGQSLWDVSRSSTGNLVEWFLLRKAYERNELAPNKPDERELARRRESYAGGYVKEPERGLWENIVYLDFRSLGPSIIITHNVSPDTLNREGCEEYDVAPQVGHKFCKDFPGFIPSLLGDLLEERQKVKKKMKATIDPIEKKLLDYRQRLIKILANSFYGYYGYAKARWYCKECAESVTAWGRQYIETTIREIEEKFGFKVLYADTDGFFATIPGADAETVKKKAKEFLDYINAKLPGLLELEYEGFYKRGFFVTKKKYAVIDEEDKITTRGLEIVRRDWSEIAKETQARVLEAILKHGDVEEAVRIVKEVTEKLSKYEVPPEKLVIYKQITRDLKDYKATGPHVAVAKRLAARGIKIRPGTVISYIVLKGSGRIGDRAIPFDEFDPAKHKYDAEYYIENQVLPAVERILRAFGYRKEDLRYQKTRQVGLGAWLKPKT
Kind of data set: EMSA. The settings on record: K0 strand is RNA (bases printed as DNA); second gate mutation vs parental E664; individual mutants and Kd values not stated; Thermopol, 1 mM EDTA; purified recombinant protein; label: 5'-FITC primer, 5'-biotin template; DNA:RNA hybrid.

Data set [2] concerns the target T1, TGK (TgoT Y409G E664K) (Thermococcus gorgonarius). Description: activity assay. The settings on record: primer strand is RNA (bases printed as DNA); time to full-length 65 nt tRNA; Thermopol + 3 mM MgSO4, 65 C; purified recombinant protein; label: 5'-FITC primer; DNA:RNA hybrid.
The target of data set [3] is TNQ (TgoT Y409N E664Q) (Thermococcus gorgonarius) (UniProt P56689). Kind of data set: activity assay. The conditions noted are these: primer strand is RNA (bases printed as DNA); time to full-length 65 nt tRNA; purified recombinant protein; label: 5'-FITC primer; DNA:RNA hybrid.
The target of data set [4] is T2, D4N (D4N3, D4 Y409N) (Thermococcus gorgonarius) (UniProt P56689).
T2 sequence: T1 sequence with L403P, G409N, P657T, E658Q, K659H, Y663H, K664Q, D669A, K671N, T676I
Kind of data set: activity assay. The conditions noted are these: primer strand is RNA (bases printed as DNA); time to full-length 65 nt tRNA; purified recombinant protein; label: 5'-FITC primer; DNA:RNA hybrid.

Changes are numbered by the printed parent chain. Construct, isoform or probe ends are uncertain for at least one entry. For some of these results: Where a protein sequence is shown, tags need not be part of it.

Consider “GCACGGCAGCACGTG / ACTGCGATGACTGTACTCGTCTAGTAGCACTGCACGTGCTGCCGTGC [K0 RNA primer / TempK4]”, for which the binding result in data set [1] is on record as “binds”.
As to “GGTGGGGTTCCCGAGCGGCCAAAGGGAGCAGACTCTAAATCTGCCGTCATCGACTTCGAAGGTTCGAATCCTTCCCCCACCACCA / CAGGAAACAGCTATGACAAATGGTGGTGGGG [tRNAtempl / YtRHNA2HNA2 RNA primer]”, the activity on this sequence was less than 30 s in data set [2], less than 10 min in data set [3] and 20 min in data set [4].
